# Source: US7166296B2, “Pharmaceutical formulations and ligands for use therein; mimetics for UEA-1” (Sarlan, Ltd., priority 2001, dated 2007)
# For at least one compound, name, drawing or mass did not settle the structure.
# Legend:
# [1] = tested on: UEA-1 binding sites on Caco-2 cell membrane preparations; assay: Single tier competition assay: inhibition of biotinylated UEA-1 binding, compound and biotinylated UEA-1 incubated together; design: species or system human; conditions: for Single Tier Assay IC50: library MSI 27; for Avg % Inhibtion: Single Tier Assay, library MSI 26
# Experimental: (§1) The epithelial cell binding ability of compounds and mixtures obtained from synthetic combinatorial libraries was determined by competition assays. These assays were set up to measure the inhibition of binding of biotinylated UEA-1 to membrane preparations of the epithelial cell line Caco-2 (colon carcinoma cells-2), by compounds and mixtures of the combinatorial libraries. This cell line is a conventional model for epithelial cells.
# (§2) Two competition inhibition assays were used in this case, namely single tier and two tier assays. These assays differed from each other in that in the single tier assay, the mixtures/compounds and the biotinylated UEA-1 were incubated together with the Caco-2 cell membrane preparations, while in case of the two-tier assay, the mixture/compounds were allowed to incubate alone with the cell membranes in the absence of biotinylated UEA-1, which was added in the next step. Addition of the extra step in the two-tier assay was to ensure that the compounds inhibiting the binding of biotinylated UEA-1 to the Caco-2 cell membranes were doing so by themselves binding to surface receptors on the Caco-2 cells and not to the biotinylated UEA-1. Each assay will be described in detail.
# (§3) • 1. Confluent Caco-2 cell monolayers (grown in 75 cm^2 flasks for up to 1 week at 37° C. and 5% CO2) were washed twice in Dulbecco's PBS (DPBS). • 2. Cell monolayers were treated with 10 mM EDTA-DPBS for 5–10 min at 37° C. and cells were harvested by centrifugation at 1000 rpm for 5 min. • 3. Cells were washed 3 times in DPBS. • 4. […] The cells were homogenised for 30 sec. • 6. The homogenates were centrifuged in hard walled tubes at 40,000 rpm for 45 min at 4° C. • 7. […] The supernatant was removed and stored on ice. The procedure was repeated adding the second supernatant to the first. • 8. The protein concentration was determined using e.g. a Bio-Rad protein assay. • 9. All fractions were stored at −80° C. prior to use. Single Tier Assays: • 1. 96-well microtiter plates were coated with membrane preparations of Caco-2 cells either by allowing them to incubate on the plates for 2½ hours at room temperature or by incubating them overnight at 4° C. 100 μl of 10 μg/ml (in 0.05 M carbonate buffer, pH 9.6) of membrane preparation was added to each well. • 2. The plates were flicked out, patted dry and blocked with bovine serum albumin (BSA)/DPBS (200 μl/well) for 1 to 4 hours at room temperature after which they were washed three times in water. • 3. […] Control wells were also set up in which the Caco-2 cell membrane preparations were incubated with unconjugated UEA-1. […] Following overnight incubation the plates were washed thoroughly (3–6 times). The plates were flicked out, patted dry and biotinylated UEA-1 was detected with commercial Streptavidin conjugated to horseradish peroxidase (HRP) (CalBiochem). […] The plates were left to incubate for an hour at room temperature. • 6. The plates were then washed 3–6 times and the biotin-streptavidin binding was detected by adding an HRP substrate OPD (orthophenyl diamine) to each well. 100 μl/well of this substrate at a final concentration of 1.6 mg/ml was added to each well. Before adding to the wells, this substrate was activated by addition of 50 μl of 3% H2O2 per plate and the reaction was allowed to develop in the dark. • 7. The reaction was stopped by adding 50 μl of 4 N H2SO4 to each well after approximately 5–10 minutes or when sufficient colour had developed. The OD490 (absorbance at 490 nm) of each well was measured using a conventional 96 well plate reading spectrophotometer. Two Tier Assays: • 1. 96 well plates were coated with Caco-2 cell membrane preparations in the same manner as described in the single tier assay. • 2. […] 100 μl at these final concentrations were added to each well. • 4. The plates were then left to incubate overnight, a step that would allow the mixtures and compounds to interact with the Caco-2 cell membranes without the presence of the competitor (biotinylated UEA-1) itself. • 5. […]
# [2] = tested on: UEA-1 binding sites on Caco-2 cell membrane preparations; assay: Two tier competition assay: compound incubated alone with membranes, biotinylated UEA-1 added in next step; design: species or system human; conditions: for Two Tier Assay IC50: library MSI 27; for Avg % Inhibition: Two Tier Assay, library MSI 26
# Experimental: as §1, §2, §3
SMILES,Single Tier Assay IC50 [1],Two Tier Assay IC50 [2],other results
COc1cc(C(=O)NCCCCC(NC(=O)c2cc(OC)c(O)c(OC)c2)C(N)=O)cc(OC)c1O (centres unmarked) [Cpd 1],≥ 250.00 µg/mL,250.00 µg/mL,–
CCOc1cc(C(=O)NCCCCC(NC(=O)c2cc(OCC)c(OCC)c(OCC)c2)C(N)=O)cc(OCC)c1OCC (centres unmarked) [Cpd 3],≥ 250.00 µg/mL,250.00 µg/mL,–
NC(=O)C(CCCCNC(=O)c1ccc(O)cc1)NC(=O)c1ccc(O)cc1 (centres unmarked) [Cpd 7],≥ 250.00 µg/mL,250.00 µg/mL,–
CCOc1cc(C(=O)NCCCCC(NC(C)=O)C(N)=O)cc(OCC)c1OCC (centres unmarked) [Cpd 11],≥ 250.00 µg/mL,250.00 µg/mL,–
CC(=O)NC(CCCCNC(=O)c1cc(O)cc(O)c1)C(N)=O (centres unmarked) [Cpd 16],≥ 250.00 µg/mL,–,–
CCOc1cc(C(=O)NCCCCC(NC(=O)c2cc(OCC)c(OCC)c(OCC)c2)C(=O)NCCCCC(NC(=O)C(CCCCNC(=O)c2cc(OCC)c(OCC)c(OCC)c2)NC(=O)c2cc(OCC)c(OCC)c(OCC)c2)C(N)=O)cc(OCC)c1OCC (centres unmarked) [Cpd 19],≥ 250.00 µg/mL,250.00 µg/mL,–
NC(=O)C(CCCCNC(=O)C(CCCCNC(=O)c1cc(O)cc(O)c1)NC(=O)c1cc(O)cc(O)c1)NC(=O)C(CCCCNC(=O)c1cc(O)cc(O)c1)NC(=O)c1cc(O)cc(O)c1 (centres unmarked) [Cpd 24],≥ 250.00 µg/mL,250.00 µg/mL,–
CCOc1cc(C(=O)NCCCCC(NC(=O)C(CCCCNC(=O)c2cc(OCC)c(OCC)c(OCC)c2)NC(=O)c2cc(OCC)c(OCC)c(OCC)c2)C(N)=O)cc(OCC)c1OCC (centres unmarked) [Cpd 27],≥ 250.00 µg/mL,250.00 µg/mL,–
NC(=O)C(CCCCNC(=O)c1ccc(O)cc1)NC(=O)C(CCCCNC(=O)c1ccc(O)cc1)NC(=O)c1ccc(O)cc1 (centres unmarked) [Cpd 31],≥ 250.00 µg/mL,250.00 µg/mL,–
NC(=O)C(CCCCNC(=O)c1cc(O)cc(O)c1)NC(=O)C(CCCCNC(=O)c1cc(O)cc(O)c1)NC(=O)c1cc(O)cc(O)c1 (centres unmarked) [Cpd 32],≥ 250.00 µg/mL,250.00 µg/mL,–
CCOc1cc(C(=O)NCCCCC(NC(=O)C(CCCCNC(=O)c2cc(OCC)c(OCC)c(OCC)c2)NC(C)=O)C(N)=O)cc(OCC)c1OCC (centres unmarked) [Cpd 35],≥ 250.00 µg/mL,250.00 µg/mL,–
CC(=O)NC(CCCCNC(=O)c1ccc(O)cc1)C(=O)NC(CCCCNC(=O)c1ccc(O)cc1)C(N)=O (centres unmarked) [Cpd 39],≥ 250.00 µg/mL,–,–
CC(=O)NC(CCCCNC(=O)c1cc(O)cc(O)c1)C(=O)NC(CCCCNC(=O)c1cc(O)cc(O)c1)C(N)=O (centres unmarked) [Cpd 40],≥ 250.00 µg/mL,250.00 µg/mL,–
CCOc1cc(C(=O)NCCCC[C@@H](NC(=O)[C@@H](CCCCNC(=O)c2cc(OCC)c(OCC)c(OCC)c2)NC(=O)[C@@H](CCCCNC(=O)c2cc(OCC)c(OCC)c(OCC)c2)NC(=O)c2cc(OCC)c(OCC)c(OCC)c2)C(N)=O)cc(OCC)c1OCC [Cpd 43],≥ 250.00 µg/mL,250.00 µg/mL,–
NC(=O)[C@@H](CCCCNC(=O)c1ccc(O)cc1)NC(=O)[C@@H](CCCCNC(=O)c1ccc(O)cc1)NC(=O)[C@@H](CCCCNC(=O)c1ccc(O)cc1)NC(=O)c1ccc(O)cc1 [Cpd 47],≥ 250.00 µg/mL,250.00 µg/mL,–
NC(=O)[C@@H](CCCCNC(=O)c1cc(O)cc(O)c1)NC(=O)[C@@H](CCCCNC(=O)c1cc(O)cc(O)c1)NC(=O)[C@@H](CCCCNC(=O)c1cc(O)cc(O)c1)NC(=O)c1cc(O)cc(O)c1 [Cpd 48],≥ 250.00 µg/mL,250.00 µg/mL,–
CCOc1cc(C(=O)NCCCCC(NC(=O)C(CCCCNC(=O)c2cc(OCC)c(OCC)c(OCC)c2)NC(=O)C(CCCCNC(=O)c2cc(OCC)c(OCC)c(OCC)c2)NC(C)=O)C(N)=O)cc(OCC)c1OCC (centres unmarked) [Cpd 51],≥ 250.00 µg/mL,250.00 µg/mL,–
CC(=O)NC(CCCCNC(=O)c1ccc(O)cc1)C(=O)NC(CCCCNC(=O)c1ccc(O)cc1)C(=O)NC(CCCCNC(=O)c1ccc(O)cc1)C(N)=O (centres unmarked) [Cpd 55],≥ 250.00 µg/mL,250.00 µg/mL,–
"CC(C)OC(=O)c1cc(O)c(O)c(O)c1 [Isopropylgallate, reference compound]",–,–,Avg % Inhibtion ([1]; 62.5 μg/ml): 10.8%; Avg % Inhibtion ([1]; 250 μg/ml): 3.9%; Avg % Inhibition ([2]; 62.5 μg/ml): −7%; Avg % Inhibition ([2]; 250 μg/ml): 8.9%
